The source of these data is US10596254B2 (priority 2003, dated 2020).

This data set is described as follows: general procedure: Fmoc solid-phase peptide synthesis; Wang resin (substitution about 0.8 mmole/g), Novabiochem; HBTU/DIEA. To be noted: for crude mass: scale 0.22 mmole.
Where [1] appears, read: whole synthesis, Method A, 220 nm, scale of the general procedure approximately 0.22 mmole (0.4 g Fmoc-AA-Wang resin).
Where [2] appears, read: whole synthesis, analytical HPLC with UV detection (Method A; Method B at 260 nm), scale of the general procedure approximately 0.22 mmole (0.4 g Fmoc-AA-Wang resin).
[3] abbreviates: conjugation step, Method B, 260 nm.

End groups of sequences in plain letters are not given here.

AKXVAAWTLKAAAILKEPVHGV: the “crude HPLC purity” value under setting [1] is “about 40% purity”. In addition, the “final HPLC purity” value under setting [2] is listed as no less than 85%. Further, the crude mass result (whole synthesis) is listed as “Approximately 440 mg”.

KSSAKXVAAWTLKAAASLYNTVATL: the “crude HPLC purity” value under setting [1] was “about 40% Purity”. The “final HPLC purity” value under setting [2] is no less than 85%. The crude mass entry (whole synthesis) is on record as “Approximately 400 mg”.

For Mal-PADRE:I9V, under setting [2], the “crude HPLC purity” value was “about 40% pure” and the “final HPLC purity” value is “greater than or equal to 85% pure”. Further, under “whole synthesis”, the crude mass result is given as “Approximately 440 mg”.

As to PADRE-I9V + Oligo 2, the “final HPLC purity” value under setting [3] is on record as 70-80% pure.

In the case of PADRE:I9V + Oligo 3, the “final HPLC purity” value is, setting by setting: under setting [3], 70-80% pure; (conjugation step, Method B, diphenyl column) ≥70-80% pure.

Take PADRE:I9V:K:S9L + Oligo 3: the “final HPLC purity” value under setting [3] is given as “about 70-80% pure”.
